Measurements: PMC3543376
No constants are given. Whether binding was seen depends on the method and setting. In cells and extracts the contact can be indirect. Some entries that bind do so weakly or less than the wild type.

Protein sequences, listed by entry. Tags and fused reporters are not part of them. Lines headed by an entry give the natural chain unless they say otherwise; changes in a name come on top. Chains listed by the source or under a name are the forms on record and can include a tag or linker.
UniProt O60674: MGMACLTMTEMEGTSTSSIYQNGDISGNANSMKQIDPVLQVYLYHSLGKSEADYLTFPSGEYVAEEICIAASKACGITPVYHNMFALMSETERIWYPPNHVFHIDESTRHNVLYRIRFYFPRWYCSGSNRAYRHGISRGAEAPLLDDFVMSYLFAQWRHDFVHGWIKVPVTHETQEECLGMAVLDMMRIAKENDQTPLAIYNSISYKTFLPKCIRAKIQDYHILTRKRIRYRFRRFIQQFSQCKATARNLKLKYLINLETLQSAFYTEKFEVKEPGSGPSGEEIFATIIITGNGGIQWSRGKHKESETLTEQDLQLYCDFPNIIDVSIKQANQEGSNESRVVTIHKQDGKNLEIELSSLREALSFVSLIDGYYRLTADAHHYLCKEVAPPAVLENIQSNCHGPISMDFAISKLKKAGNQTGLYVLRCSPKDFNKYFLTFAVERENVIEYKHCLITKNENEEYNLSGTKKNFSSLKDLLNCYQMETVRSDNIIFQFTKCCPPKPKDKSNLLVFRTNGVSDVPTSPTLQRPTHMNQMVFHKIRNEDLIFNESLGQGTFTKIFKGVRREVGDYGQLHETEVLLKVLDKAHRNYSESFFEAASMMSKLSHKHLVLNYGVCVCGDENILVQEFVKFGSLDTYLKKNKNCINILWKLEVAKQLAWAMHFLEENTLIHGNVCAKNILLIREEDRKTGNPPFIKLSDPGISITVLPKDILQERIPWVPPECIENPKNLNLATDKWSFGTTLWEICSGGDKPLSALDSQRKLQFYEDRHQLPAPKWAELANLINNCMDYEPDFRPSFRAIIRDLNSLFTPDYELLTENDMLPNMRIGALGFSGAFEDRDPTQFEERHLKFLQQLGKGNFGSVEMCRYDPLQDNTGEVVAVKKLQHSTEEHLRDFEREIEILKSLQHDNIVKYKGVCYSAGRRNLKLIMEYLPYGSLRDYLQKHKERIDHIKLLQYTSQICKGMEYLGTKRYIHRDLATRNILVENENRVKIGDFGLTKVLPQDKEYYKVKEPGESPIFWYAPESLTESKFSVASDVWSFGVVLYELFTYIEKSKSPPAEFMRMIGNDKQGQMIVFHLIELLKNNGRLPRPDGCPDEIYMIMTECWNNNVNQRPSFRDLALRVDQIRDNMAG
UniProt P40763: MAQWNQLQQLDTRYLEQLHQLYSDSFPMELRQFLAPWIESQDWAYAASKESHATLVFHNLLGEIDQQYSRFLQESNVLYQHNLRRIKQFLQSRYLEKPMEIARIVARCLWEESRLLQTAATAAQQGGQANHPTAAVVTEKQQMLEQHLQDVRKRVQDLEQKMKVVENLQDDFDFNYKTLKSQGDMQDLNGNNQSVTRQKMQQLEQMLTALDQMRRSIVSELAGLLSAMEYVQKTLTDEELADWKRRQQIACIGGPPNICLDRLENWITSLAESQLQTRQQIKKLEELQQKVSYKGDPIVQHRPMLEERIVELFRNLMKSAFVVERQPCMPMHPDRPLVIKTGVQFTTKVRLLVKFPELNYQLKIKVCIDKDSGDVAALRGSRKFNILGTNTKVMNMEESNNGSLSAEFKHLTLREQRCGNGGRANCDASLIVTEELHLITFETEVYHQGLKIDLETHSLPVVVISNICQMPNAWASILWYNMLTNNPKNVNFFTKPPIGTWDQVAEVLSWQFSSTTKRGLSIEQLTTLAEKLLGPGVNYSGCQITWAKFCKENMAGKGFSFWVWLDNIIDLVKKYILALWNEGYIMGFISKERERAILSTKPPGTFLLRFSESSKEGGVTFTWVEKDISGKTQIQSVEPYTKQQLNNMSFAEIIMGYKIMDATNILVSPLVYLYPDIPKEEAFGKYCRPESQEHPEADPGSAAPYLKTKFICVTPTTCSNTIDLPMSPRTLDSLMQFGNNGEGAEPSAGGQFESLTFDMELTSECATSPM
standard isoform of CD44 (CD44s, 85 kDa) (P16070-12, form named): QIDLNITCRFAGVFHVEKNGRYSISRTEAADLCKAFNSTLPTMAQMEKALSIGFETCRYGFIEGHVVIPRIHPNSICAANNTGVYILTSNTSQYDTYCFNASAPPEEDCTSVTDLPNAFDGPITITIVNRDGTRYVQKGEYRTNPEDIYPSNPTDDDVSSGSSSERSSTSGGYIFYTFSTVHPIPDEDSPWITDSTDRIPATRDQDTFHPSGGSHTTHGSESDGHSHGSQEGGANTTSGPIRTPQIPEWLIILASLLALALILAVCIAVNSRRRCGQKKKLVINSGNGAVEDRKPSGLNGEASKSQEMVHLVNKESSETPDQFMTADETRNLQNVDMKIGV

How the values were obtained:
[1] = biological target: Janus kinase 2 (JAK2) (human (endogenous in MCF10DCIS)) (UniProt O60674); test: co-IP; MCF10DCIS cell lysates, cells incubated 24 h with or without BXL0124 (10 nM); antibodies to STAT3 or JAK2 immobilised on protein G Dynabeads, 10-minute incubation, three washes; detection by Western blot
[2] = biological target: Signal transducer and activator of transcription 3 (STAT3) (human (endogenous in MCF10DCIS)) (UniProt P40763); test: as above

- binding [1]: binds
- binding [2]: binds
Substance: standard isoform of CD44 (CD44s, 85 kDa) (from UniProt P16070-12 21-361) (receptor)
